Source: patent publication US20210196779A1, “Compositions and Methods for Treating Steroid Hormone-Related Diseases or Disorders” (YALE UNIVERSITY, priority 2018, published 2021)
Read-outs that look alike come from different tables or passages of the source.

How the values were obtained:
Type in all cases: cell-based
[1] = tested on: LNCaP-GR (GR overexpressing) cells; assay: Cell growth assay, GR overexpressing LNCaP cells; conditions: Homo sapiens, 96 h, 4 days, read-out: IC50 for the inhibition of growth
Procedure: (§1) 20,000 cells in 1 ml of medium (phenol red free RPMI1640, 5% charcoal-dialysis FBS, 50 μg/ml Kanamyacin) were seeded per well of a 24-well plate and incubated in a 37° C. incubator with 5% CO2 overnight. Different concentrations of herbal extract were added to each well in order to have final concentrations from 50 μg/ml to 500 μg/ml. For prostate cancer cells, DHT (25 nM) was used to stimulate androgen receptor activity. For glucocorticoid receptor overexpressed LNCaP cells, dexamethasone (50 nM) was used to stimulate glucocorticoid receptor activity. For all breast cancer cells, E2 (10 nM) was used to stimulate ER activity. Control medium without any steroid hormone was used as a control setting. After 4 days of incubation, cells were fixed and stained for 2 h with 0.5% methylene blue in 50% ethanol, followed by washing with tap water to remove unbound dye. Plates were air dried and then cells were dissolved in 1% sarkosyl (sodium lauroyl sarcosinate) by shaking at room temperature for 3 h. Cell growth was quantified based on the amount of methylene blue adsorbed by the cells as measured by a spectrophotometer (Molecular Devices) at 595 nm. All experiments were performed in triplicate wells and were repeated at least three times.

22Rv1 cells = assay: Cell growth assay, 22Rv1 prostate cancer cells; conditions: Homo sapiens, 22Rv1, 96 h, 4 days, read-out: IC50 for the inhibition of growth
Procedure: (§2) 22RV1 or LNCaP prostate cancer cells were grown in corning T75 cell culture flasks in RPMI1640 medium supplemented with 5% FBS, 50 μg/ml Kanamycin in a 37° C., 5% CO2 incubator.
as §1

PC3 cells = assay: Cell growth assay, PC3 cells; conditions: Homo sapiens, PC-3, 96 h, 4 days, read-out: IC50 for the inhibition of growth
Procedure: as §1

LNCaP cells = assay: Cell growth assay, LNCaP prostate cancer cells; conditions: Homo sapiens, 96 h, 4 days, read-out: IC50 for the inhibition of growth
Procedure: as §2
as §1, with “All experiments were performed in triplicate wells and were repeated at least three times.” left out

IC50 ([1]; LNCaP-GR w/DEX 50 nM): > 5 µM
IC50 ([1]; LNCaP-GR w/DHT 2 nM): 0.5 µM
IC50 ([1]; LNCaP-GR, no DHT/DEX): > 5 µM
IC50 (22Rv1 cells; 22Rv1, no DHT/DEX): > 5 µM
IC50 (22Rv1 cells; 22Rv1 w/DEX 50 nM): > 5 µM
IC50 (22Rv1 cells; 22Rv1 w/DHT 25 nM): > 5 µM
IC50 (PC3 cells; PC3, no DEX): > 5 µM
IC50 (PC3 cells; PC3 w/DEX 50 nM): > 5 µM
IC50 (LNCaP cells; LNCaP w/DHT 2 nM): 0.5 µM
IC50 (LNCaP cells; no DHT): > 5 µM
SMILES: CNC(=O)c1ccc(N2C(=S)N(c3ccc(C#N)c(C(F)(F)F)c3)C(=O)C2(C)C)cc1F [Enzalutamide, reference compound]
